Reference: patent US20050164379A1
No constants are given. Whether binding was seen depends on the method and setting. In cells and extracts the contact can be indirect. Some binding calls cover weakened binding; strength is not graded here.

The chains behind the UniProt entries cited, without tags or fusion partners. Where a name states a change or a piece, a line headed by the entry shows the natural chain unless it says otherwise.
UniProt Q12809: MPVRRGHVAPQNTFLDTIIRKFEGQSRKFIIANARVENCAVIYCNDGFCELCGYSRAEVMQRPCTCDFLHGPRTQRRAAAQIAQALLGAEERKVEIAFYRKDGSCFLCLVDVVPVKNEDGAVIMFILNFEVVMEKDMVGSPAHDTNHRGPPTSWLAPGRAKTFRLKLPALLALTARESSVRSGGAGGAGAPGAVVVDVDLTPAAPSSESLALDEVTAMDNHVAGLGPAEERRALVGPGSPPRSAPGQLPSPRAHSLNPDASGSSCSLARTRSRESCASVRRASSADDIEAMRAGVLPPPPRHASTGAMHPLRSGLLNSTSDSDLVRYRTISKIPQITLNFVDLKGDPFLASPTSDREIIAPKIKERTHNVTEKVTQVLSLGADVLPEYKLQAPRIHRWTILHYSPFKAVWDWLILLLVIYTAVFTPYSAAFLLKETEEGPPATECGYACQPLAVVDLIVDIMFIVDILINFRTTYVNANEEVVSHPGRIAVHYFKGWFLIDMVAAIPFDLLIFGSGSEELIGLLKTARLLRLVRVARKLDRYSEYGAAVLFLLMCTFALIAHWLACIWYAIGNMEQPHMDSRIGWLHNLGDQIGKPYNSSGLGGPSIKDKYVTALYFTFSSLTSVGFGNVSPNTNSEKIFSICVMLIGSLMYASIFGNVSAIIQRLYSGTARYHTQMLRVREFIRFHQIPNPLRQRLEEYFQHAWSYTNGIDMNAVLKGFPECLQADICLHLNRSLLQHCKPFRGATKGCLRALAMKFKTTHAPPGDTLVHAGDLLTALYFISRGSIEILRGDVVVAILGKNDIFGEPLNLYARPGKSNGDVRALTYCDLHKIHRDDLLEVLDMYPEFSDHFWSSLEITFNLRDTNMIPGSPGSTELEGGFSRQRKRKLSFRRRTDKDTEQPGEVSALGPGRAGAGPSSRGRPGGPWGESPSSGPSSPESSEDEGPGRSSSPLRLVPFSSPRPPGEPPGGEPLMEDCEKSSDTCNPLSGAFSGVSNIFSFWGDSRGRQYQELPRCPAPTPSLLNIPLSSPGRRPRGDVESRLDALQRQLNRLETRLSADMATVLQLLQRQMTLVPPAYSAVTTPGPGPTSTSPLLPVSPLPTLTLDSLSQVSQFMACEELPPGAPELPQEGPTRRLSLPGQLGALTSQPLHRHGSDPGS

Assays:
[1] = target: HERG1b subunit (human ERG1b) (human) (UniProt Q12809); experiment: co-immunoprecipitation
[2] = target: HERG1b subunit (human ERG1b) (human) (UniProt Q12809); experiment: co-immunoprecipitation from a human myocyte preparation
[3] = target: HERG1b subunit (human ERG1b) (human) (UniProt Q12809); experiment: co-immunoprecipitation from stably transfected HEK-293 cells

Measured: binding

HERG1a subunit (human ERG1a) (from UniProt Q12809 1-1159)
binds: all assays above
